Assay results: PMC9160021, “Artificial intelligence-assisted cryoEM structure of Bfr2-Lcp5 complex observed in the yeast small subunit processome” (Communications Biology, 2022)
Results are given in words; binding and its absence hold for the method and conditions named. For some assays here: Binding seen in cells or lysates may run through a third protein. Some results given as binding are weak or reduced against the parent protein; the word gives no strength. Tags and fused reporters may be left off the sequences shown. Values belong to the binder of their own block, whether it stands above or below them.

What was measured:
[1] = biological target: T1, MBP-Bfr2(266–432) (S. cerevisiae (genomic DNA of BY4741 strain)) (UniProt Q06631); assay: pull-down; in cell: E. coli cells expressing MBP-Bfr2(266–432) or Lcp5(1–160), harvested as a mixture of both or individually, lysed, loaded on and eluted from an amylose column; SDS-PAGE
T1 sequence: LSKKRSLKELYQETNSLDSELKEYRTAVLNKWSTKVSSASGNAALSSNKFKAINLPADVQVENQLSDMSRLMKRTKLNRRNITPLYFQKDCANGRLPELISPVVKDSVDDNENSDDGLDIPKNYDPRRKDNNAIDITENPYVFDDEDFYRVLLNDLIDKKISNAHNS

[2] = biological target: T2, MBP-Bfr2(360–432) (S. cerevisiae (genomic DNA of BY4741 strain)) (UniProt Q06631); assay: pull-down; in vitro: purified MBP, MBP-Bfr2(360–432) or MBP-Bfr2(266–432) as bait with purified His-Lcp5(1–160); both purified
T2 sequence: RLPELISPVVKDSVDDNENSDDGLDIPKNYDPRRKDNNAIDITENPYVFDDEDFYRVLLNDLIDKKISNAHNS

binding [1]: binds
B1: Lcp5(1–160), untagged (domain or fragment, UniProt P40079 1-160)
chain: MSELNALLKDINGSLTATSESLERLSGIYSNSATDEIPESNQLHEHLFYDAKKPAEKVSLLSLKNGSMLGYINSLLMLIGNRLDDECKDPSAMDARERSIQHRVVLERGVKPLEKKLAYQLDKLTRAYVKMEKEYKDAEKRALEKSTLVNHSGNDDSEDD

binding [2]: no binding
B2: His-Lcp5(1–160) (domain or fragment, S. cerevisiae, UniProt P40079 1-160, looked up)
chain: B1 chain
notes: Lcp5, S. cerevisiae, residues 1–160, polyhistidine tagged; The methods describe only the cloning of the untagged Lcp5(1–160); also called polyhistidine tagged Lcp5 fragment 1–160; source: bacteria expression host, purified
